Results on one molecule are retold here after paper doi:10.1101/2022.02.08.479400.

The target of this test is T1, nEYFP-fused PDR6 (Arabidopsis thaliana) (UniProt Q7PC87).
T1 sequence: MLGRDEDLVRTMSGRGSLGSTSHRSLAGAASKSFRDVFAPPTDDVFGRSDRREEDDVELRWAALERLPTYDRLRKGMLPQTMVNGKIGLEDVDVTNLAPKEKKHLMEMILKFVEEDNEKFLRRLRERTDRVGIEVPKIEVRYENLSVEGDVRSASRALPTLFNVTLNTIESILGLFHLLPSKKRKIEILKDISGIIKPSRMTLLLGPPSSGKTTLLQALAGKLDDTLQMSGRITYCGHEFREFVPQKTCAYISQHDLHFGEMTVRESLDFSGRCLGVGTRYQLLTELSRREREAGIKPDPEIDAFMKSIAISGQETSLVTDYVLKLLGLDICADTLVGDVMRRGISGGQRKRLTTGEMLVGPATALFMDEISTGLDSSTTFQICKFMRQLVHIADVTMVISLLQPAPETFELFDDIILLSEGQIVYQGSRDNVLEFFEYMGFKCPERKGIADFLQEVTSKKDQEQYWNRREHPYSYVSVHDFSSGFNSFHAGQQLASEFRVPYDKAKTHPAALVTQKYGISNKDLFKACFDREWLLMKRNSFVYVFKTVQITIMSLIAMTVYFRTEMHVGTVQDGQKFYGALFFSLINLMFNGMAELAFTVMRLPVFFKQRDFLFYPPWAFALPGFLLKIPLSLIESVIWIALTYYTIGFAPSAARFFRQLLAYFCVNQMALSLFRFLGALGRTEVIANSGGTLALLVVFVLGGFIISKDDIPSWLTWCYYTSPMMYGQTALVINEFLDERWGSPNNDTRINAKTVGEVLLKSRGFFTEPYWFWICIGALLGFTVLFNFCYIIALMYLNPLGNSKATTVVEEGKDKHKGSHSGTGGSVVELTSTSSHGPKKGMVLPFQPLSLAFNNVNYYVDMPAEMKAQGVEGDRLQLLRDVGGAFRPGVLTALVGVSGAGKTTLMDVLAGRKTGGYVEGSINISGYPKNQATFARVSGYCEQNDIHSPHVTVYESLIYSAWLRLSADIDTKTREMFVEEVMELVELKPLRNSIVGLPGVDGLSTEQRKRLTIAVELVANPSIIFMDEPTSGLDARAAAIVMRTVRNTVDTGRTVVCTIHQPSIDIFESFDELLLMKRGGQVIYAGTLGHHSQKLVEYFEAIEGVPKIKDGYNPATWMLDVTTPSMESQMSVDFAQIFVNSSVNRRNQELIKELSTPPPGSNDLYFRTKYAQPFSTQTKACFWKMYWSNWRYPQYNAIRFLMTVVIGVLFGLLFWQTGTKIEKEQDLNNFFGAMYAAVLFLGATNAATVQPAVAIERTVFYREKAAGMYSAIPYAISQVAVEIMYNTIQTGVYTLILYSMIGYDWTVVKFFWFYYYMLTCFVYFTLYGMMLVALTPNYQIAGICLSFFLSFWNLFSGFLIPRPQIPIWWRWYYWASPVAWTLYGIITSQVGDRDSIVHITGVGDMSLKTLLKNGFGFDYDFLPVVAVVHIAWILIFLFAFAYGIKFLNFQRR
Kind of test: split reporter.

No constants are given. Whether binding was seen depends on the method and setting. In cells and extracts the contact can be indirect. Some entries that bind do so weakly or less than the wild type. Sequences can lack the tags named with a protein.

B1: cEYFP-fused OXI1 (enzyme, UniProt Q9LSF1 1-421)
chain: MLEGDEKQSRALDFNRLEVLSLLGRGAKGVVFLVRDDDAKLLALKVILKEAIEKKKKGRESEDDEYKRVSFEQGVLSRFDHPLFPSLHGVLATDKVIGYAIDYCPGQNLNSLRKMQSESMFSDEIIRFYAAELVLALDYLHNQGIVYRDLKPDNVMIQENGHLMLIDFDLSTNLAPRTPQPSPSLSKPSPTMKRKKRLFRFTSFCNSGISPQESISVHSSSTLAVSDSSGEKSNSFVGTEEYVAPEVISGDGHDFAVDWWSLGVVLYEMLYGATPFRGSNRKETFYRILSKPPNLTGETTSLRDLIRRLLEKDPSRRINVEEIKGHDFFRGVDWEKVILVSRPPYIPAPDDGGDKGTDVNTKMDVENIVQEIFAARQEREKQSGDNNKNANMKIKDNTSGEWVKGLNNNHDLESDNNFLVF
B1: the binding result is reported as “binds”.
